Test results published in US20030073654A1, “Stabilized transient gene expression” (Genespan Corporation, priority 1996, published 2003).
Several values for one entry are separate records, joined by “and”; a condition that tells them apart may be missing. Identical values can stand only once. At least one read-out could not be matched to a standard name with certainty.

System: SW480 P3 (ATCC #CCL228) human colon carcinoma cells
Assay: Screening assay for enhancement of transient expression (β-galactosidase gene, liposomal transfection, 6-well plates)
Format: cell-based
Source text: These parameters are called the “X” factor, the “G” factor, and the “K” factor. [formula]
This factor reflects the extent to which a chemical compound added to a transfected cell enhances stabilizes transient expression for the first four days following transfection. […] For example, if expression is doubled in the presence of a compound, […]. […] X may be calculated similarly when the agent in question is a mixture of more than one chemical compound.
Cumulative protein expression, i.e., the values for “A” and “C”, is measured by summing the values measured daily in aliquots of the cultured cells.
2. G factors. G factors differ from the X factor only with respect to the time period evaluated. For calculating a G factor, the amount of protein expressed is measured from days 4-7 or days 4-14, where day 0 is the day on which the foreign DNA is added to the cells. […]
3. […] K is determined according to the following equation: [formula] […]
Values for k(DNA) are derived by using a computer program that plots the log of the foreign protein concentration against time, using the results of transgenic protein measurements that begin about 24 hours after the foreign DNA has been added to the cell. […] Thus, the slope is calculated during this period of decline to provide values for k(DNA) and K that can be compared for the purpose of comparing the efficacy of different chemical compounds. […]

For `CCc1ccc(C(=O)O)cc1` [4-ETHYLBENZOIC ACID], the “G Factor (G14)” value (Table 1, values without asterisk, days 4-14 after transfection) was 43 and 63 and the “X Factor” value (Table 1, cumulative β-galactosidase vs control, first four days after transfection, compound at the mM given in the table) was 42 and 46.
